These are yes or no findings as the source states them, for the method shown. Binding seen in cells or lysates may run through a third protein. Binding calls can cover weak binding; strength is not graded here.
Target: Flag-tagged lysyl hydroxylase 2 (LH2) (human) (UniProt O00469)
Test: co-IP; H157 cells transfected with Flag-tagged LH2, LH2-Flag as bait; RIPA lysate, primary antibody and protein G agarose beads at 4°C overnight, 4 washes with RIPA; Western blot

Amino acid sequences for entries named in this document (tags omitted). A change or cut given only in a name is not applied to a line headed by its entry. Residues count along the entry.
UniProt O00469: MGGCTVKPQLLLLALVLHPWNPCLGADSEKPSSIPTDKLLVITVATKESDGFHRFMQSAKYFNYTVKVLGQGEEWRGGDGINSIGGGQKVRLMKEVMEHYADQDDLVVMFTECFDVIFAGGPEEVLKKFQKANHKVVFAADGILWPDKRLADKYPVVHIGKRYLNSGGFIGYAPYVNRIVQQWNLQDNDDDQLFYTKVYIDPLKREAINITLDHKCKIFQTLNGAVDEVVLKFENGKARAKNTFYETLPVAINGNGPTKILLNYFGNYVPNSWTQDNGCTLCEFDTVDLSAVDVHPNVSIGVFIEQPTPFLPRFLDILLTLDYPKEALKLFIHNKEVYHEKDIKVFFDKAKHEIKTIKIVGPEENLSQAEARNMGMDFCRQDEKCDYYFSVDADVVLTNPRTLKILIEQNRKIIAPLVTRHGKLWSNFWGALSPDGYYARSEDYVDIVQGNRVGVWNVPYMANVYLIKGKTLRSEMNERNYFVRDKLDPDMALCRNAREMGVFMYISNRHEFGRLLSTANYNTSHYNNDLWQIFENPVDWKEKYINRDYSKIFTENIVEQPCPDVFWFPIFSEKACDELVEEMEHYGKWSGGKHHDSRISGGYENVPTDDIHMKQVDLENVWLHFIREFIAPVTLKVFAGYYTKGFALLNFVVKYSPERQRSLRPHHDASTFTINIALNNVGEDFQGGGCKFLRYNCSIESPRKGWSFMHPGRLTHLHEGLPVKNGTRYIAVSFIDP
UniProt Q96AY3, residues 27-582: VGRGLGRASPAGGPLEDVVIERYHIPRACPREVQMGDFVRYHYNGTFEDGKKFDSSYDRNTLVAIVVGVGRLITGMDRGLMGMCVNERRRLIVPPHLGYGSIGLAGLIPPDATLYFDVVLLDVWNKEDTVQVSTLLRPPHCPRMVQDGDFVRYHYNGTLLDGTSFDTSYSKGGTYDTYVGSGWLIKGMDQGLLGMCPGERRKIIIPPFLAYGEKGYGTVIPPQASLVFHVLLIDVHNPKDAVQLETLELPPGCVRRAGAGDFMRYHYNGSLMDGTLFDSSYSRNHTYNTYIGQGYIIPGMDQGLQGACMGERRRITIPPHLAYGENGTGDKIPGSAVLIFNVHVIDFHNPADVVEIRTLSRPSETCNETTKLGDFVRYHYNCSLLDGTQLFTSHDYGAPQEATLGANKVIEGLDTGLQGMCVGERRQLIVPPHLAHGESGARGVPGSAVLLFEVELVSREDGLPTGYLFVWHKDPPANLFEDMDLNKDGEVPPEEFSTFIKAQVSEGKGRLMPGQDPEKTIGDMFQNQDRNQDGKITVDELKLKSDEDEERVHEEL

binding: binds
Substance: FKBP65 (from UniProt Q96AY3 27-582)
